Structures can show the parent of a compound that is named as a salt. The list shows a part of the results. The calls rarely recur for the same compound in another form.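 In K562 cells expressing nanoluciferase-fused kinases, luminescence was recorded at 4 h intervals between 2 and 18 h, normalized as percent of control with DMSO at 100% and a positive control at 0%. A significant (2 sigma) signal drop marks a time point as decreased. The authors' rule for a hit is not shown and takes in more than the number of time points.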
Experiments:
Test in all cases: number of time points (of 5) at which kinase-Nluc abundance scored as decreased, DMSO-normalised (count); higher = more persistent destabilization
Conditions in all cases: K562; 2-18 h
EGFR_L861Q = EGFR_L861Q (UniProt P00533)
EGFR_T790M = EGFR_T790M (UniProt P00533)
EPHA2 = EPHA2 (UniProt P29317)
ERBB3 = ERBB3 (UniProt P21860)
[1] = biological target: ERBB4_R711C (clone: ERBB4_mut) (UniProt Q15303)
ERN1 = ERN1 (UniProt O75460)
FGFR1 = FGFR1 (UniProt P11362)
FGFR2 = FGFR2 (UniProt P21802)
FGFR3 = FGFR3 (UniProt P22607)
FGR = FGR (UniProt P09769)
FLT3 = FLT3 (UniProt P36888)
FYN = FYN (UniProt P06241)
GSK3A = GSK3A (UniProt P49840)
HER2 = HER2 (UniProt P04626)
INSRR = INSRR (UniProt P14616)
IRAK3 = IRAK3 (UniProt Q9Y616)
JAK1 = JAK1 (UniProt P23458)
LCK = LCK (UniProt P06239)
LIMK1 = LIMK1 (UniProt P53667)
LIMK2 = LIMK2 (UniProt P53671)

The chains behind the UniProt entries cited, without tags or fusion partners. Where a name states a change or a piece, a line headed by the entry shows the natural chain unless it says otherwise.
UniProt Q15303, whole entry R711C: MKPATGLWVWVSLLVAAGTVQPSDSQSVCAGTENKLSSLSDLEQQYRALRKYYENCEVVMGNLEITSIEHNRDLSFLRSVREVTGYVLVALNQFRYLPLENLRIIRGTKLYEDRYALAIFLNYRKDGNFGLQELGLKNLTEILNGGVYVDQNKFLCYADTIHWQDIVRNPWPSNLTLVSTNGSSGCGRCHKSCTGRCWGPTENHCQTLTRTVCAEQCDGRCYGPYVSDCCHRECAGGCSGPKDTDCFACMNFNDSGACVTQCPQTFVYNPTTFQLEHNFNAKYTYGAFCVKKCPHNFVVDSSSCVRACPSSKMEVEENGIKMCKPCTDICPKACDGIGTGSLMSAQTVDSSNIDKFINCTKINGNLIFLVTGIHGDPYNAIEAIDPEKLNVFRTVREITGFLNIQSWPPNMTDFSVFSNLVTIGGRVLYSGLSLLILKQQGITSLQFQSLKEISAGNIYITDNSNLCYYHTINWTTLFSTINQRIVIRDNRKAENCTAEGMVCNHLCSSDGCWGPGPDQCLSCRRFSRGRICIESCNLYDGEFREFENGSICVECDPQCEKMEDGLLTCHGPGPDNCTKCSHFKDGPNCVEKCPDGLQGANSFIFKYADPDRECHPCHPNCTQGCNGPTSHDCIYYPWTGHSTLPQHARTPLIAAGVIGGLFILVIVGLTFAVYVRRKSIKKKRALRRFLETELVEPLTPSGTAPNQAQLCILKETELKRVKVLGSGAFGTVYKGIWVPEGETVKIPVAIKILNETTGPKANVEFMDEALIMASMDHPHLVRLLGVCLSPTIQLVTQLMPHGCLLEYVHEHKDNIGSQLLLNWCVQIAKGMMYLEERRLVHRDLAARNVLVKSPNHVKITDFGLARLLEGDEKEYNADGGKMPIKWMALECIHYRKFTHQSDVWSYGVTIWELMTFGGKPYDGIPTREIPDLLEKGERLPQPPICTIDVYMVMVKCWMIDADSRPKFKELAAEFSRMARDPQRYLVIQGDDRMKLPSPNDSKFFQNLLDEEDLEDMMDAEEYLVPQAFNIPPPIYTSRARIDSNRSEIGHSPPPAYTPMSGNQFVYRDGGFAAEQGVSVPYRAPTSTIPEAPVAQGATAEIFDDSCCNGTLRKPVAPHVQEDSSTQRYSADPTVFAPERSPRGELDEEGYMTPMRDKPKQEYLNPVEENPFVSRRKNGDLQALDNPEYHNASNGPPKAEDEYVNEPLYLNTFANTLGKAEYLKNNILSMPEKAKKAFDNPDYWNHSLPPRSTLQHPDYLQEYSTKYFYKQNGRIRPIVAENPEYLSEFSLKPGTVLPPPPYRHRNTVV
UniProt P11362, whole entry, looked up: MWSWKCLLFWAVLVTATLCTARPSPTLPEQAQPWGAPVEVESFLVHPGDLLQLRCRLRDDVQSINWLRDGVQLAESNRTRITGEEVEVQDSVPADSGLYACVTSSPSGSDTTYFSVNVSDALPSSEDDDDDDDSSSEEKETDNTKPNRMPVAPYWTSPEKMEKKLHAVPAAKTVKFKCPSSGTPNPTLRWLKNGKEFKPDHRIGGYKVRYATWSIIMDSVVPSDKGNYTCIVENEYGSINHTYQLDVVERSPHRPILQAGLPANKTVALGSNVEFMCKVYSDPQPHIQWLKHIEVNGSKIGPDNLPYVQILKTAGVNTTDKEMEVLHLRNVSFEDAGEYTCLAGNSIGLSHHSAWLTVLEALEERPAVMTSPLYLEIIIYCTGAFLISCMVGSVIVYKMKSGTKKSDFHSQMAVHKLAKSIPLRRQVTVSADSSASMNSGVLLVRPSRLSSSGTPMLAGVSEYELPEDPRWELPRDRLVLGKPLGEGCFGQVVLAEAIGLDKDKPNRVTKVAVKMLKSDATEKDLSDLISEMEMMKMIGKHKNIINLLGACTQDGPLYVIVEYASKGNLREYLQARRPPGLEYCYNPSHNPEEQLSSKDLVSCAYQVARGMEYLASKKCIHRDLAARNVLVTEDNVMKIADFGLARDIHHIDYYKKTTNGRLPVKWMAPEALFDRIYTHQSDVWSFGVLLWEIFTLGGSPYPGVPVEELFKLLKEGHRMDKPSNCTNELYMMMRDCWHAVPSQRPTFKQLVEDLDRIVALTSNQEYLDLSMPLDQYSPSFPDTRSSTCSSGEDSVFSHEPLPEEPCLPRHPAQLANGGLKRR
UniProt P21802, whole entry, looked up: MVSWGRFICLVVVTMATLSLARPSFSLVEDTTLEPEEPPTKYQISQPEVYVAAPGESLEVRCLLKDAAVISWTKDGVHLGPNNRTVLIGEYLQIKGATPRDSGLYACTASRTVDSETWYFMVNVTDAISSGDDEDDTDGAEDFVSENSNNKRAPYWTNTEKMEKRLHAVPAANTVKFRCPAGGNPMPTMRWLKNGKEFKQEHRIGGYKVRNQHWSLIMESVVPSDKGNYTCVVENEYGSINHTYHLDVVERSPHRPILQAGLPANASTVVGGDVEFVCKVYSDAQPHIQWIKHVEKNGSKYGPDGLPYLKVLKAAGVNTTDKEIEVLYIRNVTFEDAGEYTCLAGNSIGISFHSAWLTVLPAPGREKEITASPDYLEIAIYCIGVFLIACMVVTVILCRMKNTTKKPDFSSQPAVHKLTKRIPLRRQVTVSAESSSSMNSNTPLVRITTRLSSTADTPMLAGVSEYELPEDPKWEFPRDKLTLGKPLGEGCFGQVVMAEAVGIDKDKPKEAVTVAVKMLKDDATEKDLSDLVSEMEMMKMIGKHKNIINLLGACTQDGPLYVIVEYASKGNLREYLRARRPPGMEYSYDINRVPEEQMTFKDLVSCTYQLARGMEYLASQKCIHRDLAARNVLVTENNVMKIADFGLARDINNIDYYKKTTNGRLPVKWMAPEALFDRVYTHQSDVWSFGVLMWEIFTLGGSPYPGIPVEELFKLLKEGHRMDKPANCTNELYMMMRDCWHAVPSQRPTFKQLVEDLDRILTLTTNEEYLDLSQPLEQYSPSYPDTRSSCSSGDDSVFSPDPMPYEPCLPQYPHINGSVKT
UniProt P36888, whole entry: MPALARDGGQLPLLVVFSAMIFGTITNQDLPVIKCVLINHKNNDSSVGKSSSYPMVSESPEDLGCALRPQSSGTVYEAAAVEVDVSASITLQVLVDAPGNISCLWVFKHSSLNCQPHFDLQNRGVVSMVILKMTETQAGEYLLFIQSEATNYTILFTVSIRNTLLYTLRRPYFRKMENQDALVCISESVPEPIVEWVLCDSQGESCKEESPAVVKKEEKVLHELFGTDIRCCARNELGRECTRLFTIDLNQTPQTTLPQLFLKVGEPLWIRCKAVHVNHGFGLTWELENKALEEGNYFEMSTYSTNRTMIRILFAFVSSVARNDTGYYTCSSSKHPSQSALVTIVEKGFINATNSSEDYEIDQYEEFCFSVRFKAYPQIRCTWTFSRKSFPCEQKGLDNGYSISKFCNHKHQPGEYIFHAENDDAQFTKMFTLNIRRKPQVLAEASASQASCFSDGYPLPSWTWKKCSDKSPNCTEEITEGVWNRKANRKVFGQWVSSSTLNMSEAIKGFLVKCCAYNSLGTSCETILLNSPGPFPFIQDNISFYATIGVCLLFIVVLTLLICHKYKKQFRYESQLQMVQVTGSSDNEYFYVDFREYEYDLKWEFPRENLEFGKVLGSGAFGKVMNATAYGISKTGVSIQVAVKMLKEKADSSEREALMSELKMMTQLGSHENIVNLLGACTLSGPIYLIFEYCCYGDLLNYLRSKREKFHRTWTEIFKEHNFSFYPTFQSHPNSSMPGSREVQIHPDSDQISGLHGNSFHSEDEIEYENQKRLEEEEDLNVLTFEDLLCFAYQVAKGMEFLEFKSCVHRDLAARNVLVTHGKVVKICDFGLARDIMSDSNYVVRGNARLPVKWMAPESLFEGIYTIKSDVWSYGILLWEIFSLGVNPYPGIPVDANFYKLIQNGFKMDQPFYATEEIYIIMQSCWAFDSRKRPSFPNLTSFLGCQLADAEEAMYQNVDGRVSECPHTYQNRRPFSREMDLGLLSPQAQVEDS
UniProt P49840: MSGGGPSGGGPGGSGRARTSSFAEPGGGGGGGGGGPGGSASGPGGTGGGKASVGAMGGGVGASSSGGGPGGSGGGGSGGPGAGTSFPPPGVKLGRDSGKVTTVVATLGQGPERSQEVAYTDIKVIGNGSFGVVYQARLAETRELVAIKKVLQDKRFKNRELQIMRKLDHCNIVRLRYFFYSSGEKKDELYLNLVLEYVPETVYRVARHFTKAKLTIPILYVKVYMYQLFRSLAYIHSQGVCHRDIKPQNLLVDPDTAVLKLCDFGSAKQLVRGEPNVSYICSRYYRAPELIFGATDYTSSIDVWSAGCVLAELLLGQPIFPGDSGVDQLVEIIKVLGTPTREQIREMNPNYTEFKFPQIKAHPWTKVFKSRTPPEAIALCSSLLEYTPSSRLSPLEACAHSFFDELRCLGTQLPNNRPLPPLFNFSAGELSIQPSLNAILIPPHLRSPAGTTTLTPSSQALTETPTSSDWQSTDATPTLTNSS
UniProt P14616: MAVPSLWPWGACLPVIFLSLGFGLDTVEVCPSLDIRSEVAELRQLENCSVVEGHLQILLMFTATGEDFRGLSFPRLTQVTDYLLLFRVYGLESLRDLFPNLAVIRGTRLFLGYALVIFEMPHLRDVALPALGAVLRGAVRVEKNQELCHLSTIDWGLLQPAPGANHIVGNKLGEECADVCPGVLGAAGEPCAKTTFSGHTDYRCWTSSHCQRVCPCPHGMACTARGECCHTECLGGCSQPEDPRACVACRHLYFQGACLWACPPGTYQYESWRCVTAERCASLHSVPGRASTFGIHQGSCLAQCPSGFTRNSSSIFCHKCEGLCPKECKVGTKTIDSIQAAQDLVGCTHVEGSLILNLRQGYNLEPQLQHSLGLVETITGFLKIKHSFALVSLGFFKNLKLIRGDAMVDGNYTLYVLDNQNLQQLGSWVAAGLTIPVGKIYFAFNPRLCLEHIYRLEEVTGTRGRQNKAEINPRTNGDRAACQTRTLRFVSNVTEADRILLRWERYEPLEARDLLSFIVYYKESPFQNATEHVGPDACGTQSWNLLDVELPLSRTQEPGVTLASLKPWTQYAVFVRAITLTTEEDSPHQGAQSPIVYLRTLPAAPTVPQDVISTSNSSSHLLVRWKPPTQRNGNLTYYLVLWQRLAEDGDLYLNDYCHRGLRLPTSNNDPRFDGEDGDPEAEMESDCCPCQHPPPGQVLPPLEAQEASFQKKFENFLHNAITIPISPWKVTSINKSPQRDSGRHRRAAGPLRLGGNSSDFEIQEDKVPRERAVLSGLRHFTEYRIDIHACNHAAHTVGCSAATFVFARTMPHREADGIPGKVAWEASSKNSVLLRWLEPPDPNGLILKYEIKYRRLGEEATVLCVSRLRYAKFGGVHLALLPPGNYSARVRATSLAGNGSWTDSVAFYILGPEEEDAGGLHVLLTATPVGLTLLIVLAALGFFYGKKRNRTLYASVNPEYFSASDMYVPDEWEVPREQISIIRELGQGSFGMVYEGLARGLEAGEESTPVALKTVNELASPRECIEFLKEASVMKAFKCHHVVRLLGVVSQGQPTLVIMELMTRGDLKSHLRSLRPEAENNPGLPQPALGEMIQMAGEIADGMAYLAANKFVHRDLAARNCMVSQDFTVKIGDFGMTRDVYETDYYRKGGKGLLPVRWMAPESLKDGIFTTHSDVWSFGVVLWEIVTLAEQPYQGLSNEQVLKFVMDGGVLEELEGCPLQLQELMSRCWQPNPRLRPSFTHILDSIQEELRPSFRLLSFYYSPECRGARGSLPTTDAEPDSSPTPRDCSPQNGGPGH
UniProt P53671: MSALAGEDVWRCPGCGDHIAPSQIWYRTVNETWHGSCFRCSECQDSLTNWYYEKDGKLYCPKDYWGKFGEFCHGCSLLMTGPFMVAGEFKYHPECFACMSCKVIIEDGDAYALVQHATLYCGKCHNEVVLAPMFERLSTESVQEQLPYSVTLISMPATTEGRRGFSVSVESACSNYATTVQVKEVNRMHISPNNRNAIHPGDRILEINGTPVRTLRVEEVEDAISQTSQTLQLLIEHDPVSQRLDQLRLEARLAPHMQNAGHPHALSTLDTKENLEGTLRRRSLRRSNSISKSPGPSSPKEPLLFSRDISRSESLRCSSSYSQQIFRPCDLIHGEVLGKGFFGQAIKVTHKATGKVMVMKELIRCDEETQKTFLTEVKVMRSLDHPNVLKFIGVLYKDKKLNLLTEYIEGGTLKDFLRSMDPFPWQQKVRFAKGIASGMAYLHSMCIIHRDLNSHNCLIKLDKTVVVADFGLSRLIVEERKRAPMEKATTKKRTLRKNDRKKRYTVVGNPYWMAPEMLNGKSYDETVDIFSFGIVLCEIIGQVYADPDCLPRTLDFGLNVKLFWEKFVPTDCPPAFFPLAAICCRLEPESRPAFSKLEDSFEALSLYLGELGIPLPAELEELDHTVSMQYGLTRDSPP

Measured: number of time points

CC(=O)Oc1ccc(/C=C/c2cc(OC(C)=O)cc(OC(C)=O)c2)cc1 [Triacetylresveratrol] (10 µM)
0: all assays above

COc1ccc(N(C(=O)Oc2c(C)cccc2C)c2ccnc(Nc3ccc(N4CCN(C)CC4)cc3)n2)c(OC)c1 (2.5 µM)
0: all assays above

C/C=C(/C)C(=O)O[C@H]1[C@@H]2[C@H](C)C(=O)O[C@@H]2C[C@@H](C)[C@@H]2C=CC(=O)[C@]21C [Brevilin A] (2.5 µM)
0: all assays above

CC(C)=CC[C@@H](OC(=O)CC(C)(C)O)C1=CC(=O)c2c(O)ccc(O)c2C1=O [β-Hydroxyisovalerylshikonin] (2.5 µM)
0: all assays above

O=c1ccc2cc(O[C@@H]3O[C@H](CO)[C@@H](O)[C@H](O)[C@H]3O)c(O)cc2o1 [Esculin] (10 µM)
0: all assays above

O=c1[nH]c2ccccc2n1C1CCN(CCCC(c2ccc(F)cc2)c2ccc(F)cc2)CC1 [Pimozide] (2.5 µM)
0: all assays above

COc1ccc(/C=C/c2cc(OC)c(OC)c(OC)c2)cc1 (2.5 µM)
2: EGFR_L861Q | [1] | ERN1 | FGFR1 | INSRR | JAK1
4: FYN
1: EGFR_T790M | FLT3 | LIMK1 | LIMK2
0: all other assays above

C/C(O)=C(\C#N)C(=O)Nc1cc(Br)ccc1Br (10 µM)
0: all assays above

C=CC(=O)Nc1ccc2[nH]c(=O)n(C3CCN(Cc4ccc(-c5nc6cc[nH]c(=O)c6cc5-c5ccccc5)cc4)CC3)c2c1 [Borussertib] (10 µM)
1: LIMK1
0: all other assays above

C[S+]([O-])/C=C/CCN=C=S (configuration not stated) [Sulforaphene] (10 µM)
0: all assays above

C[C@@H]1CC[C@H]2[C@@H](C)C(=O)O[C@@H]3O[C@@]4(C)CC[C@@H]1[C@]32OO4 [Artemisinin] (10 µM)
4: ERN1
0: all other assays above

Cc1ccccc1-n1c(Cn2cnc3c(N)ncnc32)nc2cccc(C)c2c1=O (10 µM)
0: all assays above

COc1ccc2c(c[n+](C)c3c4cc5c(cc4ccc23)OCO5)c1OC [Chelerythrine (chloride)] (10 µM)
3: EPHA2
5: LIMK2
4: IRAK3 | LIMK1
0: all other assays above

CC(=O)O[C@H]1[C@H]2[C@@H](OC(=O)Cc3ccccc3)[C@@H](C)C[C@]2(OC(C)=O)C(=O)/C(C)=C/[C@@H]2[C@H](CC[C@@]13CO3)C2(C)C [Euphorbiasteroid] (10 µM)
0: all assays above

Cc1[nH]ncc1-c1cc2nc([C@H]3CC4CCN3CC4)[nH]c(=O)c2s1 [(R)-Simurosertib] (10 µM)
0: all assays above

O=C(N[C@@H](COc1ccc2[nH]c(=O)[nH]c2c1)c1ccccc1)c1cccn(Cc2ccc(F)c(F)c2)c1=O (2.5 µM)
0: all assays above

Cn1cc(C2=C(c3cn(C4CCN(Cc5ccccn5)CC4)c4ccccc34)C(=O)NC2=O)c2ccccc21 [Enzastaurin] (10 µM)
0: all assays above

CC(=O)OC(C)(C)/C=C/C(=O)[C@](C)(O)[C@H]1[C@H](O)C[C@@]2(C)[C@@H]3CC=C4[C@@H](C=C(O)C(=O)C4(C)C)[C@]3(C)C(=O)C[C@]12C [Cucurbitacin E] (2.5 µM)
4: [1] | FYN
2: IRAK3
1: EGFR_T790M | FGFR1 | HER2
3: EGFR_L861Q | ERBB3 | FGFR2 | FLT3 | LIMK2
0: all other assays above

C[C@H](Nc1ncnc2[nH]cnc12)c1nc2ccc(F)cc2c(=O)n1-c1ccccc1 [Acalisib] (10 µM)
0: all assays above

CC(=O)c1c(O)c(C)c(O)c(Cc2c(O)c3c(c(C(=O)/C=C/c4ccccc4)c2O)OC(C)(C)C=C3)c1O [Rottlerin] (2 µM)
0: all assays above

N#CC(C#N)=NNc1cccc(Cl)c1 (2.5 µM)
2: EGFR_L861Q
3: [1]
0: all other assays above

COC[C@H]1OC(=O)c2coc3c2[C@@]1(C)C1=C(C3=O)[C@@H]2CCC(=O)[C@@]2(C)C[C@H]1OC(C)=O [Wortmannin] (2.5 µM)
3: ERBB3 | LIMK2
1: JAK1
4: FYN
2: [1] | FGFR2 | IRAK3 | LIMK1
0: all other assays above

CN(C)C(=O)c1ccc(Cn2c(C(=O)O)cc3c(Br)cc(Sc4ccc(Cl)c(Cl)c4)cc32)cc1 [Rheb inhibitor NR1] (10 µM)
0: all assays above

CC(C)(C)c1cc(C=C(C#N)C#N)cc(Br)c1O (2.5 µM)
0: all assays above

C[C@H]1CC[C@]2(NC1)O[C@H]1C[C@H]3[C@@H]4CC[C@H]5C[C@@H](O[C@@H]6O[C@H](CO)[C@H](O[C@@H]7O[C@H](CO)[C@@H](O)[C@H](O[C@@H]8OC[C@@H](O)[C@H](O)[C@H]8O)[C@H]7O[C@@H]7O[C@H](CO)[C@@H](O)[C@H](O)[C@H]7O)[C@H](O)[C@H]6O)CC[C@]5(C)[C@H]4CC[C@]3(C)[C@H]1[C@@H]2C [Tomatine] (2.5 µM)
4: FGFR2 | FLT3 | FYN
1: [1]
5: FGFR1 | LIMK2
0: all other assays above

C[C@H](CCC(=O)O)C[C@H](C)C[C@H](C)C(=O)/C=C(\O)[C@H](C)C[C@H](C)C/C=C/[C@@H](C)[C@@H](O)[C@@H](C)[C@@H](O)C[C@@H]1CC[C@@](C)([C@H]2CC[C@@](C)([C@@H](C)O)O2)O1 [Ionomycin (calcium)] (2.5 µM)
2: ERN1
5: EPHA2
0: all other assays above

CCCS(=O)(=O)Nc1ccc(F)c(-n2cc(-c3cncnc3)c3nc(N(C)C4CCN(CC)CC4)ccc32)c1F (2 µM)
0: all assays above

C[C@H]1CC[C@]2(NC1)O[C@H]1C[C@H]3[C@@H]4CC[C@H]5C[C@@H](O)CC[C@]5(C)[C@H]4CC[C@]3(C)[C@H]1[C@@H]2C [Tomatidine (hydrochloride)] (10 µM)
0: all assays above

COc1ccc2c(c1)/C(=C/c1cnc[nH]1)C(=O)N2 (2.5 µM)
not listed: ERN1
0: all other assays above

CC1=C[C@]23C(=O)[C@@H](C=C(CO)[C@@H](O)[C@]2(O)[C@H]1O)[C@H]1[C@@H](C[C@H]3C)C1(C)C [Ingenol] (10 µM)
0: all assays above

CC1C(=O)OC2C(O)C34C5OC(=O)C3(OC3OC(=O)C(O)C34C(C(C)(C)C)C5O)C12O (configuration not stated) [Ginkgolide C] (10 µM)
0: all assays above

O=c1cc(O)c2ccccc2o1 [4-Hydroxycoumarin] (10 µM)
0: all assays above

O=C(O)c1sc2cc(Cl)ccc2c1Cl (10 µM)
0: all assays above

N#CC(C#N)=Cc1ccc(O)c(O)c1 [Tyrphostin 23] (10 µM)
not listed: EGFR_L861Q | EGFR_T790M
0: all other assays above

Cc1n[nH]cc1-c1cc2nc([C@@H]3CC4CCN3CC4)[nH]c(=O)c2s1 [Simurosertib] (2.5 µM)
0: all assays above

CCOC(=O)c1c(/C(C#N)=C\N)c2ccc(Cl)c(Cl)c2n1C (10 µM)
0: all assays above

Cc1ccccc1-n1c(Cn2ncc3c(N)ncnc32)nc2cccc(C)c2c1=O (10 µM)
0: all assays above

COc1ccc2c(c1OC)C(OC)N(C)c1c-2ccc2cc3c(cc12)OCO3 (configuration not stated) [Angoline] (10 µM)
0: all assays above

O=C(/C=C/c1ccccc1)OC[C@H]1O[C@@H](O[C@@H]2OC=C[C@H]3[C@H](O)[C@@H]4O[C@]4(CO)[C@@H]23)[C@H](O)[C@@H](O)[C@@H]1O [Picroside I] (10 µM)
0: all assays above

O=[N+]([O-])/C=C/c1ccc2c(c1)OCO2 (2.5 µM)
0: all assays above

O=C1C=CC[C@@H]2[C@H]3CCCN4CCC[C@@H](CN12)[C@@H]34 [Sophocarpine (monohydrate)] (2.5 µM)
0: all assays above

Nc1ncnc2c1ncn2[C@@H]1O[C@@H]2COP(O)(=S)O[C@H]2[C@H]1O (some centres not stated) [Sp-cAMPS (sodium salt)] (10 µM)
0: all assays above

O=C(O)c1nn(Cc2ccc(Cl)cc2Cl)c2ccccc12 [Lonidamine] (10 µM)
0: all assays above

O=c1[nH]c2ccccc2n1C1CCN(Cc2ccc(-c3[nH]c4cc5ncnc5cc4nc3-c3ccccc3)cc2)CC1 [AKT inhibitor VIII] (2.5 µM)
0: all assays above

NCCc1cn(S(=O)(=O)c2c(Cl)nc3sccn23)c2ccccc12 (10 µM)
0: all assays above

O=C1C=CC[C@@H]2[C@H]3CCCN4CCC[C@@H](CN12)[C@@H]34 [Sophocarpine] (10 µM)
0: all assays above
